For the experiment, the target named is GST-GS15 (UniProt Q9NYM9). In words: pull-down; GST-Syntaxin5 cytoplasmic domain or GST-GS15 as bait; prey from HeLa cell extract; only the target purified.

Sequences of proteins named here, by UniProt entry; tags and fusion partners are left off. A change or cut given only in a name is not applied to a line headed by its entry.
UniProt Q9NYM9: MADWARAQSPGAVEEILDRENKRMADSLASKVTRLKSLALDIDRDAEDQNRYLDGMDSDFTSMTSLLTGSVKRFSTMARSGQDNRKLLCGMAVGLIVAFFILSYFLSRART

Results are given in words; binding and its absence hold for the method and conditions named. In cells and extracts the contact can be indirect. Sequences can lack the tags named with a protein.

B1: YFP-Golgin45 (protein, UniProt Q9H2G9 1-400)
chain: MTTKNLETKVTVTSSPIRGAGDGMETEEPPKSVEVTSGVQSRKHHSLQSPWKKAVPSESPGVLQLGKMLTEKAMEVKAVRILVPKAAITHDIPNKNTKVKSLGHHKGEFLGQSEGVIEPNKELSEVKNVLEKLKNSERRLLQDKEGLSNQLRVQTEVNRELKKLLVASVGDDLQYHFERLAREKNQLILENEALGRNTAQLSEQLERMSIQCDVWRSKFLASRVMADELTNSRAALQRQNRDAHGAIQDLLSEREQFRQEMIATQKLLEELLVSLQWGREQTYSPSVQPHSTAELALTNHKLAKAVNSHLLGNVGINNQKKIPSTVEFCSTPAEKMAETVLRILDPVTCKESSPDNPFFESSPTTLLATKKNIGRFHPYTRYENITFNCCNHCRGELIAL
Take B1: the binding result is given as “no binding”.

B2: GM130 (protein, UniProt Q08379 1-1002)
chain: MWPQPRLPPRPAMSEETRQSKLAAAKKKLREYQQRNSPGVPTGAKKKKKIKNGSNPETTTSGGCHSPEDTPKDNAATLQPSDDTVLPGGVPSPGASLTSMAASQNHDADNVPNLMDETKTFSSTESLRQLSQQLNGLVCESATCVNGEGPASSANLKDLESRYQQLAVALDSSYVTNKQLNITIEKLKQQNQEITDQLEEEKKECHQKQGALREQLQVHIQTIGILVSEKAELQTALAHTQHAARQKEGESEDLASRLQYSRRRVGELERALSAVSTQQKKADRYNKELTKERDALRLELYKNTQSNEDLKQEKSELEEKLRVLVTEKAGMQLNLEELQKKLEMTELLLQQFSSRCEAPDANQQLQQAMEERAQLEAHLGQVMESVRQLQMERDKYAENLKGESAMWRQRMQQMSEQVHTLREEKECSMSRVQELETSLAELRNQMAEPPPPEPPAGPSEVEQQLQAEAEHLRKELEGLAGQLQAQVQDNEGLSRLNREQEERLLELERAAELWGEQAEARRQILETMQNDRTTISRALSQNRELKEQLAELQSGFVKLTNENMEITSALQSEQHVKRELGKKLGELQEKLSELKETVELKSQEAQSLQQQRDQYLGHLQQYVAAYQQLTSEKEVLHNQLLLQTQLVDQLQQQEAQGKAVAEMARQELQETQERLEAATQQNQQLRAQLSLMAHPGEGDGLDREEEEDEEEEEEEAVAVPQPMPSIPEDLESREAMVAFFNSAVASAEEEQARLRGQLKEQRVRCRRLAHLLASAQKEPEAAAPAPGTGGDSVCGETHRALQGAMEKLQSRFMELMQEKADLKERVEELEHRCIQLSGETDTIGEYIALYQSQRAVLKERHREKEEYISRLAQDKEEMKVKLLELQELVLRLVGDRNEWHGRFLAAAQNPADEPTSGAPAPQELGAANQQGDLCEVSLAGSVEPAQGEAREGSPRDNPTAQQIMQLLREMQNPRERPGLGSNPCIPFFYRADENDEVKITVI
For B2, the binding result was “no binding”.
